No constants are given. Whether binding was seen depends on the method and setting.
Biological target: Arabidopsis thaliana dehydroascorbate reductase 2 (Arabidopsis thaliana) (UniProt Q9FRL8)
Test: crystal structure; glutathionylated AtDHAR2 at 20 mg/mL, hanging drop vapor diffusion, 2 M ammonium sulfate, 0.1 M sodium acetate pH 4.8, 20 °C; 2.3 Å, space group P21221; both purified

The chains behind the UniProt entries cited, without tags or fusion partners.
UniProt Q9FRL8: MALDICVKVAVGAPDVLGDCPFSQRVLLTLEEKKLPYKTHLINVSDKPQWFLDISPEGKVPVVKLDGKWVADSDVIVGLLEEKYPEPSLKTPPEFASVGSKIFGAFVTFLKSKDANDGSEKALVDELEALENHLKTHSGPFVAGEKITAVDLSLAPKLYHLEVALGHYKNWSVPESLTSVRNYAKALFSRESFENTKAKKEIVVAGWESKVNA

Arabidopsis thaliana dehydroascorbate reductase 2 (from UniProt Q9FRL8 1-213) (enzyme)
binding: no binding

From paper PMC5307357
